# Assay results reported in doi:10.1101/2019.12.13.876110.
# Chains of the proteins cited; added tags and fusions are not shown. Lines headed by an entry give the natural chain unless they say otherwise; changes in a name come on top.
# UniProt P38838: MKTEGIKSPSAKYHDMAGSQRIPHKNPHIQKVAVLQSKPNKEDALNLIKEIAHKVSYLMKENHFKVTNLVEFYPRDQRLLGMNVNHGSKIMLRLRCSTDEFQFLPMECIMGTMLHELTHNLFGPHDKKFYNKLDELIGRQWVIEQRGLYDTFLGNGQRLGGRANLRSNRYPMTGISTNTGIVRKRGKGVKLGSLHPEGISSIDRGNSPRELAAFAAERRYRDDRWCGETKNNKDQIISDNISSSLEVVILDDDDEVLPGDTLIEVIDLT
# Construct, isoform or probe ends are uncertain for at least one entry.
# Molecular target: Wss1-RKR (self-cleavage deficient) (Saccharomyces cerevisiae) (UniProt P38838)
# Test: EMSA
# Conditions: 5 uM ZnSO4
sequence,measurement,value
GCGCGCCCATTGATACTAAATTCAAGGATGACTTATTTC [6-FAM-39mer ssODN],binding result,binds
